Measurements reported in PubChem BioAssay AID2685 (National Center for Advancing Translational Sciences (NCATS), 2010).
Out of some 320,000 compounds screened, about 2,100 (0.66%) were called active. This list was built around the results that the source calls inconclusive (neither active nor inactive); the mix of calls is not that of the screen. Calls follow the shape of the dose curve; as a rule, active = well fitted inhibition curve with a large enough effect in the signal ratio, with a control signal flat (not every such curve was filed as active); inconclusive = small, poorly fitted or top-dose-only effect, or effect the other way, or a change in a side signal; inactive = flat fitted curve, though single readings scatter; the % refers to the signal ratio. Where the call is inconclusive, the potency comes from a doubtful curve fit.
% is scaled to controls: 0 for no effect and ±100 for the full control effect; potency is read from the fitted curve at half-maximal effect.

Test: qHTS Assay for Lipid Storage Modulators in Drosophila S3 Cells
Settings: BODIPY lipid droplet fluorescence, 18-24 h, cells fed with added oleic acid; lipid storage change, negative = inhibition: at 46.1 µM (top of the series) unless noted
How it was run: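 Drosophila S3 cells loaded with oleic acid (400 uM, as added) and compounds at several concentrations; lipid droplets imaged by 488-nm laser-scanning cytometry, 500–530 nm intensity and object ratio to cell channel. Percent activity normalized to 20 uM Triacsin C.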
In the case of CCc1ccccc1NC(=O)C1=CN2CCS(=O)(=O)N=C2C=C1, the lipid storage change, negative = inhibition is reported as “inconclusive”.
For O=C(N/N=C/c1c(O)ccc2ccccc12)c1cccc(C(F)(F)F)c1, the lipid storage change, negative = inhibition was inconclusive: -25.2%.
For CCOc1ccc(N(CC(=O)NC2CCCCC2)C(=O)CNC(=O)c2cccs2)cc1, the Potency was inconclusive: 0.116 µM [falling, single point].
For COc1cc(C(=O)Nc2ccc(C)cn2)c([N+](=O)[O-])cc1OC, the Potency was inconclusive: 6.51 µM [rising, single point].
In the case of Cc1ccccc1C(=O)Nc1ccc(Cl)cn1, the lipid storage change, negative = inhibition is reported as inconclusive: -15.7%.
With O=C(COc1ccccc1Cl)Nc1ccc(N2CCN(C(=O)c3ccccc3)CC2)cc1 the Potency was inconclusive: 29.1 µM [falling, single point].
In the case of COC(=O)c1ccc(COC(=O)CNS(=O)(=O)c2ccccc2)cc1, the Potency is reported as inconclusive: 23.1 µM [activator, single point].
With O=C(NCC(c1ccco1)N1CCCC1)c1cccc(NS(=O)(=O)c2ccccc2)c1 (centres undefined) the lipid storage change, negative = inhibition was inconclusive: 26.9%.
With CCc1ccc(NC2=NC(C(=O)NC3CCCCC3)CC(=O)N2)cc1 (centres undefined) the Potency was inconclusive: 0.231 µM [falling, full curve, poor fit].
With O=C(CN1CCN(S(=O)(=O)c2ccc(F)cc2)CC1)Nc1ccccc1C(=O)NC1CC1 the lipid storage change, negative = inhibition was inconclusive: 1.43%.
In the case of CCc1n[nH]c(=S)n1N=C1CCC(C)CC1 (centres undefined), the lipid storage change, negative = inhibition is reported as inconclusive: -33.5% [at 0.369 µM].
In the case of Cn1cc(CN2CCC(C(O)c3cccs3)CC2)c(-c2cccc(Cl)c2)n1 (centres undefined), the Potency is reported as inconclusive: 18.4 µM [activator, single point].
With CCc1ccc(NC(=O)c2cc3c(C)nc4ccccc4c3o2)cc1 the lipid storage change, negative = inhibition was inconclusive: 20.6%.
With Cc1ccc(-c2nnn(CC(=O)N3C(C)CCCC3C)n2)cc1 (centres undefined) the Potency was active: 10.3 µM.
In the case of CCCCNc1ccc(S(N)(=O)=O)cc1[N+](=O)[O-], the Potency is reported as inconclusive: 20.6 µM [activator, single point].
With Cn1c(COc2nnc(-c3ccc(Cl)cc3)c3ccccc23)nc2ccccc21 the lipid storage change, negative = inhibition was inconclusive: -79.7%.
In the case of COc1ccc(CCn2c(=N)c(C(=O)NCC3CCCO3)cc3c(=O)n4cccc(C)c4nc32)cc1 (centres undefined), the Potency is reported as inconclusive: 1.03 µM [falling, full curve].
For O=C(Cc1cccs1)N1CCN(C(=O)C2CCCO2)CC1 (centres undefined), the lipid storage change, negative = inhibition was inconclusive: -7.02%.
In the case of O=C(NN1C(=O)C2C(c3ccccc3)C=CC(c3ccccc3)C2C1=O)c1ccncc1 (centres undefined), the lipid storage change, negative = inhibition is reported as inconclusive: -1.5%.
In the case of Cn1c(-c2ccc(F)cc2)cnc1NCc1ccc(F)cc1F, the “lipid storage change, negative = inhibition” value is reported as inactive: -14.7%.
For COc1ccc(/C=N/NC(=O)c2nc(-c3ccccc3)cc(-c3ccccc3)n2)cc1, the “lipid storage change, negative = inhibition” value was inactive: -12.8%.
For O=C(O)c1ccccc1-c1ccccc1C(=O)NCc1ccccc1F, the lipid storage change, negative = inhibition was inconclusive: -63.7%.
With Cc1cc(C)n(CC(O)COc2ccc(C(C)C)c(C)c2)n1 (centres undefined) the lipid storage change, negative = inhibition was inconclusive: -44.2%.
For Cc1ccc(-c2nnc(C)c(N3CCCC3)n2)cc1, the lipid storage change, negative = inhibition was inconclusive: 32.2%.
In the case of NC(=O)c1ccc2c(=O)n3c(-c4cc(Cl)c(N)c(Cl)c4)csc3nc2c1, the lipid storage change, negative = inhibition is reported as inconclusive: 16%.
With CCc1cc2c(SCC(=O)NCC3CCCO3)ncnc2s1 (centres undefined) the lipid storage change, negative = inhibition was inconclusive: 11.9%.
With CC1CCN(S(=O)(=O)c2ccc(S(=O)(=O)NCc3ccccc3)cc2)CC1 the lipid storage change, negative = inhibition was inconclusive: -14%.
For COc1ccccc1C(=O)Nc1ccc2c(c1)nc1n2CCN(C2CCCCC2)C1, the Potency was inconclusive: 0.146 µM [falling, partial curve, poor fit].
In the case of C=CCC1(CC=C)CCCN1C(=O)c1cc(COc2ccc(C)nc2)on1, the Potency is reported as inconclusive: 25.9 µM [falling, single point].
In the case of O=P(c1ccccc1)(c1ccccc1)N(c1ccccc1)c1ccccc1, the lipid storage change, negative = inhibition is reported as inconclusive: 14.9%.
For COc1ccc(OC)c(NC(=O)C2CC2c2ccccc2)c1 (centres undefined), the lipid storage change, negative = inhibition was inconclusive: 44.4%.
With COc1ccc(-c2[nH]ncc2C2N=C(N)Nc3nc4ccccc4n32)cc1 (centres undefined) the lipid storage change, negative = inhibition was inconclusive: 17.4%.
For CC1=C(C(=O)OCC2CCCO2)C(c2ccsc2)C2=C(CC(C)(C)CC2=O)N1 (centres undefined), the lipid storage change, negative = inhibition was inconclusive: 5.36%.
In the case of Cc1ccc(NC(=O)CCC(=O)Nc2ccc(C)cc2)cc1, the “lipid storage change, negative = inhibition” value is reported as inactive: -11.2%.
With COc1ccc(-n2nnnc2SCC(=O)NNC(=O)c2ccc([N+](=O)[O-])cc2)cc1 the “lipid storage change, negative = inhibition” value was inactive: 14.8%.
For O=C(COC(=O)c1cncc(Br)c1)NC1CCCCCC1, the lipid storage change, negative = inhibition was inconclusive: -7.87%.
For CCOCCn1c(CN2CCN(C(c3ccccc3)c3ccccc3)CC2)nc2c1c(=O)n(C)c(=O)n2C, the lipid storage change, negative = inhibition was inconclusive: 14.3%.
With O=C(NC1CCN(C(=O)Nc2ccc(F)cc2)CC1)c1cccc(F)c1 the Potency was inconclusive: 20.6 µM [activator, partial curve].
With COCCNS(=O)(=O)c1ccc(-c2ccc(Cl)cc2)cc1 the “lipid storage change, negative = inhibition” value was inactive: -0.344%.
With Cc1cccc(Nc2nc(-c3ccccc3)cs2)n1 the lipid storage change, negative = inhibition was inconclusive: -68.4%.
With CN(C)C(=O)N1CCC(C(=O)NCC2CCCO2)CC1 (centres undefined) the Potency was inconclusive: 23.1 µM [cytotoxic, single point].
For Cc1cc(C)nc(NS(=O)(=O)c2ccc(Br)s2)c1, the lipid storage change, negative = inhibition was inconclusive: 2.39%.
In the case of O=C(Cc1ccc(Cl)cc1)Nc1ccc(S(=O)(=O)Nc2cnc3ccccc3n2)cc1, the Potency is reported as inconclusive: 29.1 µM [cytotoxic, single point].
In the case of CN(C(=O)COC(=O)CNC(=O)CNC(=O)c1ccc(Cl)cc1Cl)c1ccccc1, the Potency is reported as inconclusive: 15.8 µM [falling, single point].
For CCOc1ccccc1N1CCN(CC(=O)NC(=O)NCc2ccco2)CC1, the lipid storage change, negative = inhibition was inconclusive: -13.9%.
In the case of COc1ccc2c(c1)c1nnc(SCC(=O)N3C(C)CCCC3C)nc1n2C (centres undefined), the Potency is reported as inconclusive: 2.91 µM [cytotoxic, full curve].
For Cc1ccc2nc(N3CC(C)OC(C)C3)nc(-c3ccccc3)c2c1 (centres undefined), the Potency was inconclusive: 29.1 µM [activator, single point].
In the case of O=c1c(/C=N\NS(=O)(=O)c2ccccc2)coc2ccc(Cl)cc12, the lipid storage change, negative = inhibition is reported as inconclusive: -58.1%.
For O=C(C[n+]1cc(-c2ccc(Cl)cc2)n2c1CCC2)Nc1nc(-c2ccccc2)cs1, the lipid storage change, negative = inhibition was inconclusive: 0.747%.
For C=CCN=C1NN=C(c2cc(C)n(CC=C)c2C)CS1, the lipid storage change, negative = inhibition was inconclusive: 33.9%.
With COc1ccc(Nc2ccc([N+](=O)[O-])cn2)cn1 the Potency was active: 16.4 µM.
For COCCN(C(=O)C1CCC1)c1nnc(-c2cccnc2)s1, the lipid storage change, negative = inhibition was inconclusive: 16.6%.
In the case of Cc1c(C)[n+](=O)c2c(n1[O-])C(Br)CCC2Br (centres undefined), the lipid storage change, negative = inhibition is reported as inconclusive: 19.2%.
For COc1ccccc1OCCNC(=O)c1cc(F)c(F)cc1Cl, the lipid storage change, negative = inhibition was inconclusive: -9.39%.
With Cn1cccc1C(=O)NC(=O)CSc1cccc[n+]1[O-] the lipid storage change, negative = inhibition was inconclusive: 34.8%.
For Cc1nc(C(=O)NC2CC2)sc1C1(C)CC(c2ccccc2)=NO1 (centres undefined), the lipid storage change, negative = inhibition was inconclusive: 30.6%.
For CN(C(=O)COC(=O)c1cc(S(=O)(=O)N2CCOCC2)c(Cl)cc1Cl)C1CCS(=O)(=O)C1 (centres undefined), the Potency was inconclusive: 6.51 µM [cytotoxic, single point].
With CC(=O)Nc1ccc(NC(=O)COc2ccc([N+](=O)[O-])cc2)cc1 the Potency was inconclusive: 6.51 µM [falling, single point].
With CC(NC(=O)CCCCCNC(=O)N1CCn2c1nc1ccccc12)c1ccccc1 (centres undefined) the Potency was inconclusive: 16.4 µM [falling, single point].
In the case of N#CCCn1cc(C(=O)N2CCCCC2)c(-c2ccc([N+](=O)[O-])cc2)n1, the lipid storage change, negative = inhibition is reported as inconclusive: 71.1%.
With Cc1ccc(C(=O)NCC(=O)NCC(=O)OCC(=O)c2ccc(F)cc2)cc1 the lipid storage change, negative = inhibition was inconclusive: -7.52%.
For O=C(c1ccc2nc(Cc3cccc(Cl)c3)oc2c1)N1CCC(CO)CC1, the Potency was inconclusive: 0.164 µM [falling, full curve, poor fit].
In the case of COc1cc(C(=O)NCCC(c2ccccc2)c2ccccc2)cc(OC)c1OC, the lipid storage change, negative = inhibition is reported as inconclusive: -100%.
In the case of CCOc1ccc(C(=O)N2CCN(CC(=O)N3CCCC3)CC2)cc1OCC, the lipid storage change, negative = inhibition is reported as inconclusive: 32.3%.
For Cc1ccc(CCN2CC(C(=O)NCCCN3CCOCC3)CC2=O)cc1 (centres undefined), the lipid storage change, negative = inhibition was inconclusive: -23.6%.
In the case of CC(C)(C)C(=O)NC(=S)NNC(=O)c1ccncc1, the lipid storage change, negative = inhibition is reported as inconclusive: 19.2%.
In the case of Nn1cnnc1N/N=C\c1ccc(-c2ccccc2[N+](=O)[O-])o1, the lipid storage change, negative = inhibition is reported as inconclusive: -7.42%.
In the case of CCOC(=O)C(C)Sc1nnc(NC(=O)c2ccc3c(c2)OCO3)s1 (centres undefined), the lipid storage change, negative = inhibition is reported as inconclusive: 16.4%.
With CCN(C(=O)c1cccc(F)c1)c1ccccc1C the lipid storage change, negative = inhibition was inconclusive: 48.1%.
In the case of CCOc1ccc2oc(C(=O)OCC(=O)NC3CCCCC3)c(C)c2c1, the “lipid storage change, negative = inhibition” value is reported as inactive: -2.63%.
For COc1ccc(N2C(=O)C3C4C=CC(C4)C3C2=O)nn1 (centres undefined), the lipid storage change, negative = inhibition was inconclusive: -4.91%.
With CC(C)c1c(C(=O)N/N=C/c2ccc(OCc3ccc(F)cc3)cc2)nnn1-c1nonc1N the lipid storage change, negative = inhibition was inconclusive: -8.05%.
For Cc1nnc(SCc2nc3sc4c(c3c(=O)[nH]2)CCCC4)[nH]c1=O, the lipid storage change, negative = inhibition was inconclusive: -37.7%.
With CCCCCCCc1nc2nc(C)c(Br)c(=O)n2[nH]1 the lipid storage change, negative = inhibition was inconclusive: 40.6%.
In the case of COC(=O)CNC(=O)CNC(=O)c1nn(-c2ccc(OC)c(Cl)c2)c(=O)c2ccccc12, the lipid storage change, negative = inhibition is reported as inconclusive: -14.5%.
In the case of CSc1nc2ccccc2cc1/C=C(\C#N)c1cccc(Cl)c1, the Potency is reported as inconclusive: 29.1 µM [rising, single point].
For Cc1ccccc1C(=O)NNC(=O)C1CCCN(c2ncccn2)C1 (centres undefined), the lipid storage change, negative = inhibition was inconclusive: 30.1%.
For CNC(=O)CSc1nc2cccnc2n1C1CCCCC1, the Potency was inconclusive: 2.91 µM [falling, single point].
In the case of O=C(NCc1ccc(Cl)cc1)c1ccc(NC(=O)C2CCCO2)cc1 (centres undefined), the lipid storage change, negative = inhibition is reported as inconclusive: 17.9%.
